The list shows a part of the results. Most values lie at the level of the controls, where differences are scatter.
Each target was assayed with Cc1nc(Nc2ncc(C(=O)Nc3c(C)cccc3Cl)s2)cc(N2CCN(CCO)CC2)n1 [dasatinib] (assay: log2 fold change of tryptic peptide abundance, ligand vs vehicle (limited proteolysis) (log2 ratio); higher = more trypsin-susceptible (destabilized)). Conditions: ligand concentration: 5 uM; sample: K562 cleared lysate.

Protein sequences, listed by entry. Tags and fused reporters are not part of them. Lines headed by an entry give the natural chain unless they say otherwise; changes in a name come on top.
UniProt Q7Z7A1: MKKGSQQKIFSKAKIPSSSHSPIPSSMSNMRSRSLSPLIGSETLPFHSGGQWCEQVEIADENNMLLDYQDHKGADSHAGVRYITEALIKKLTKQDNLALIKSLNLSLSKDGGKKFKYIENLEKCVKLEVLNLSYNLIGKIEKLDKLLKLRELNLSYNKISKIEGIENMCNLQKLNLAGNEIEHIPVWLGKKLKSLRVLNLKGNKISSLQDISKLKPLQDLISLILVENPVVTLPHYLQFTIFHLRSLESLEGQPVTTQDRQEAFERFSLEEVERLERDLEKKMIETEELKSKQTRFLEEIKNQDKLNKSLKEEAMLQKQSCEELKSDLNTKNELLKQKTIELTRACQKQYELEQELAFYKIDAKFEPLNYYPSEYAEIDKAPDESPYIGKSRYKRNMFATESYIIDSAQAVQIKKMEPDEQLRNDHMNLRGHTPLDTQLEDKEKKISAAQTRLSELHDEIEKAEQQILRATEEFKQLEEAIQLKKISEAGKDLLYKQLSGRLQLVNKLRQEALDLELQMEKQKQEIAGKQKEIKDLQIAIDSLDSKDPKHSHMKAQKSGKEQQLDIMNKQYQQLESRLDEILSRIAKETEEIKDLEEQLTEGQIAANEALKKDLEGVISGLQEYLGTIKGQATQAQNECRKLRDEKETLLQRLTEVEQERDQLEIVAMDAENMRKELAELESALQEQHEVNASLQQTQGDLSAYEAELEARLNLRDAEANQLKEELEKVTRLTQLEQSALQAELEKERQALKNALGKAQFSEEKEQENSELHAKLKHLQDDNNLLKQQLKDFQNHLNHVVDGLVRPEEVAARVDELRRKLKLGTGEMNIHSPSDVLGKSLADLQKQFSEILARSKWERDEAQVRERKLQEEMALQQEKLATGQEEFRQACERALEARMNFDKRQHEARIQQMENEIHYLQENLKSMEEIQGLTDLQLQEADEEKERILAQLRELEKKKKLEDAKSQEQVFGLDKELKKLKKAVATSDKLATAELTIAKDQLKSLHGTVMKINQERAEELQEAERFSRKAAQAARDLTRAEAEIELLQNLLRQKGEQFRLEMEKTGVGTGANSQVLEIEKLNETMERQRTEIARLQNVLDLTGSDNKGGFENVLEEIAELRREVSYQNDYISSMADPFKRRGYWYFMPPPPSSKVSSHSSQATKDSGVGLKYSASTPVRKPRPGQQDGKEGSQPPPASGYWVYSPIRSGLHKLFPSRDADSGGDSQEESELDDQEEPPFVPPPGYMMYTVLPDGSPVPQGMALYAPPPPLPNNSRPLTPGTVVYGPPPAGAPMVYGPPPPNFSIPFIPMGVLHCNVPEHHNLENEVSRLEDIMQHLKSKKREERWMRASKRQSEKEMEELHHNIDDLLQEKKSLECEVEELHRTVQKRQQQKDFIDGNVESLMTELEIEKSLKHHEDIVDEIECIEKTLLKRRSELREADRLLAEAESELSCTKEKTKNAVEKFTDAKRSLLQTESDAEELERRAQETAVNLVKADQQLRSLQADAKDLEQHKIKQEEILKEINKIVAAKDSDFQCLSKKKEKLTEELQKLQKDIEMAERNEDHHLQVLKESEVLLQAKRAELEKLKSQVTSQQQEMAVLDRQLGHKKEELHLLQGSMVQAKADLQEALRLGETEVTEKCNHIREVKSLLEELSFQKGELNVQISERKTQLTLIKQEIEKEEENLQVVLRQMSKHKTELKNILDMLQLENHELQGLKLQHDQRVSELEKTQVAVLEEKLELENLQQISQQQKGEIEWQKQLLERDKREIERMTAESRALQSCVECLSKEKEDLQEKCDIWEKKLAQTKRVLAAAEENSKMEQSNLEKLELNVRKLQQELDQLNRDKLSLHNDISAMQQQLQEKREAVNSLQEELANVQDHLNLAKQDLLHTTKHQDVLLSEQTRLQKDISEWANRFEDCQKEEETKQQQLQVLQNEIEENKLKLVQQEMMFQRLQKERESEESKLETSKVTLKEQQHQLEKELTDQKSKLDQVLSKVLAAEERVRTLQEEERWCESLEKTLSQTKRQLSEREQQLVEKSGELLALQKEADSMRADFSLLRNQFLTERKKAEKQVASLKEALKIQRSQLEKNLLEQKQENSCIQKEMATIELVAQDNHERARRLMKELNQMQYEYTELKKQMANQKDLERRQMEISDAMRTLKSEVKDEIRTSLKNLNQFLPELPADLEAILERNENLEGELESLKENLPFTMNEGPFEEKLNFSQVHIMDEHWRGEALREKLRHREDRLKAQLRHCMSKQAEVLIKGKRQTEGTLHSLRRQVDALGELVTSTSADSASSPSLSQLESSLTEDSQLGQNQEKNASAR
UniProt Q7RTP6, whole entry: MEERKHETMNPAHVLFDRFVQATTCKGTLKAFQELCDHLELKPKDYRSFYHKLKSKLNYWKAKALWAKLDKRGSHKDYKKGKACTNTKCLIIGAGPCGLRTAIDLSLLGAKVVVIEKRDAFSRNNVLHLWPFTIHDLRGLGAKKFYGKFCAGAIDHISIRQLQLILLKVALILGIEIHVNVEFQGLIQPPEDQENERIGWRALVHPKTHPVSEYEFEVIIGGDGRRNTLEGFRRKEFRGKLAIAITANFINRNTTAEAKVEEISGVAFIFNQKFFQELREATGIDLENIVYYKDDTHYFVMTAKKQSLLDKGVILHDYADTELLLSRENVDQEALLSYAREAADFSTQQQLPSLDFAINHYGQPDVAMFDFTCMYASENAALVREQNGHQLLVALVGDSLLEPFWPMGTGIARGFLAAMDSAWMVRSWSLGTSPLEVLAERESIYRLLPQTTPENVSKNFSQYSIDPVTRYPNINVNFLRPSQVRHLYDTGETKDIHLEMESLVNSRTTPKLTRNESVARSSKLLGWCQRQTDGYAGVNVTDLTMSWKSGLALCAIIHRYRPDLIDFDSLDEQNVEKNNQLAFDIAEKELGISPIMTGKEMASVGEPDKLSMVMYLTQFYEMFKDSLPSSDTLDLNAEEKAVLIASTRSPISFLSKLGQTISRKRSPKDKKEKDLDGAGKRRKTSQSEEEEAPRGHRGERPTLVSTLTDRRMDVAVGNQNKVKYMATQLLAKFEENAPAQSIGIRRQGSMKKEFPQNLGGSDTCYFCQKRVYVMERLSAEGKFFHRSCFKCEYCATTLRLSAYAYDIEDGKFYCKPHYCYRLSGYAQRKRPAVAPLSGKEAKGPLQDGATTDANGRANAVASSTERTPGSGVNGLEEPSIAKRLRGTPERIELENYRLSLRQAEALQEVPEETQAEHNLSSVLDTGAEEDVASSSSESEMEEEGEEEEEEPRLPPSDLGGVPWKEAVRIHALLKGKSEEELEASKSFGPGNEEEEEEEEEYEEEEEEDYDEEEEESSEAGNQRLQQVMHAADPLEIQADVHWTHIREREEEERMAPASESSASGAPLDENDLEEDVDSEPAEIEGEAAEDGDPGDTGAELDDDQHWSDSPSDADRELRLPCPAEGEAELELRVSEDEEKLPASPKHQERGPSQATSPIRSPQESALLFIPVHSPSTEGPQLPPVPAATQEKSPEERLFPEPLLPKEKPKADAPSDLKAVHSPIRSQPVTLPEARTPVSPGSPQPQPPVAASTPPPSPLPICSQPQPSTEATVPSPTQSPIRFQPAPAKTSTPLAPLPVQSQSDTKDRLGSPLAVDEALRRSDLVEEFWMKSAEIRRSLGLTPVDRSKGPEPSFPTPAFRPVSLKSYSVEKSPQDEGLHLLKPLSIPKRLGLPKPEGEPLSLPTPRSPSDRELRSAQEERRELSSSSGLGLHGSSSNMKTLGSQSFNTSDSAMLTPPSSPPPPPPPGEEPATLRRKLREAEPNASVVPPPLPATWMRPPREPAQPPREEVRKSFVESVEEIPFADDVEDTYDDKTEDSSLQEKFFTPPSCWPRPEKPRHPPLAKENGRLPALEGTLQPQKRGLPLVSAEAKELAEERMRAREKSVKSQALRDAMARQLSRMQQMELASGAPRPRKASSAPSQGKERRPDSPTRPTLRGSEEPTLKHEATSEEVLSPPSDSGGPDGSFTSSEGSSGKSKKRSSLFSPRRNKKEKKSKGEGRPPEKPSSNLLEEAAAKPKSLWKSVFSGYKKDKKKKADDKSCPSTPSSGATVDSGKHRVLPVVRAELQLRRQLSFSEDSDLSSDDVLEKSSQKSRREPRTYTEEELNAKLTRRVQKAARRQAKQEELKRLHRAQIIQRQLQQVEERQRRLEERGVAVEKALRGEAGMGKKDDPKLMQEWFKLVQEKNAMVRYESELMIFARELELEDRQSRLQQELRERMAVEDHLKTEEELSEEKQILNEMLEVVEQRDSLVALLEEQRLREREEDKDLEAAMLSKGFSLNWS
UniProt Q7L3V2: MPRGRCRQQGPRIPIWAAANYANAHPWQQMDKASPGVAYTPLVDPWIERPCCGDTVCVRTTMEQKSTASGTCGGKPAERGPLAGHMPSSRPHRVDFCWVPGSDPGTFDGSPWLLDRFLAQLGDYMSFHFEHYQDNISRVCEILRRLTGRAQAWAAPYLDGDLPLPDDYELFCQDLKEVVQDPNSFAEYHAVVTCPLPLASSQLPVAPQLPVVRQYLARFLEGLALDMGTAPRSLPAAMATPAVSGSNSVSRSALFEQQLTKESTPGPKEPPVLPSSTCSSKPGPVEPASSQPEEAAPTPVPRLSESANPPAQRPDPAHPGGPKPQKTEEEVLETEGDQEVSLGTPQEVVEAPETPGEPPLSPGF
UniProt Q7Z4G1, whole entry: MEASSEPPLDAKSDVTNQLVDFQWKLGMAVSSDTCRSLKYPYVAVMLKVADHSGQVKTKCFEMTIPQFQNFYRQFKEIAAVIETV
UniProt Q6ZNG1: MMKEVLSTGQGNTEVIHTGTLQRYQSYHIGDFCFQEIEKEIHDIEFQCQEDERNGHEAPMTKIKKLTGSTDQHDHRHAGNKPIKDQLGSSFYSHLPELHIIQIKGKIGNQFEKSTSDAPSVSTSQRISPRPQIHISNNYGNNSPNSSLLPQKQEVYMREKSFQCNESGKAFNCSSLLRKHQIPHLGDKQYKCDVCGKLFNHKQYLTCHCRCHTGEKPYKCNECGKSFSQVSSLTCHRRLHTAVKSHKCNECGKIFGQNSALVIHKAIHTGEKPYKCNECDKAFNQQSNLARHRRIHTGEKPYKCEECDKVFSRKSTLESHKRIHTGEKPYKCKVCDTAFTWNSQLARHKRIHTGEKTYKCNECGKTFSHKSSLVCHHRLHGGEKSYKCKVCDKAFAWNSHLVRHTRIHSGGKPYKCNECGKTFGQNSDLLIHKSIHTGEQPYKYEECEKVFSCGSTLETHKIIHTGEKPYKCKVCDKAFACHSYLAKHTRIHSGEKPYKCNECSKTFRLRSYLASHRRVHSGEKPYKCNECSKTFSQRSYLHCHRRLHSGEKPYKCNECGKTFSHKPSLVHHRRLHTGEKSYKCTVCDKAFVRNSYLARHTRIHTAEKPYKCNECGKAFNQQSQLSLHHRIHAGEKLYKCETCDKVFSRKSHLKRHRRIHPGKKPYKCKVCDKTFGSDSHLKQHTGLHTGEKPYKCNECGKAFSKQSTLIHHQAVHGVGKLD
UniProt Q7Z4G4: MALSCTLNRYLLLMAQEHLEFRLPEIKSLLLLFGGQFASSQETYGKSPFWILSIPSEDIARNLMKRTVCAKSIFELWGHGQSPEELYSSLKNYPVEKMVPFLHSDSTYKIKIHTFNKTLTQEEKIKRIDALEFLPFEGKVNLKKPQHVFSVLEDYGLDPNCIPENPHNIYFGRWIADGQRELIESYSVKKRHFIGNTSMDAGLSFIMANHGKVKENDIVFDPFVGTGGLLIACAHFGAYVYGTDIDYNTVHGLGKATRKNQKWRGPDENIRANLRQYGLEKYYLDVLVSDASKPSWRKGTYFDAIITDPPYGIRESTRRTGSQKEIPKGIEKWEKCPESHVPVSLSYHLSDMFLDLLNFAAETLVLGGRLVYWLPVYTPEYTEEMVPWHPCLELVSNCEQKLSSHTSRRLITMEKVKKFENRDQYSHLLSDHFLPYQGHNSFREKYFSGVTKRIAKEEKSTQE
UniProt Q7Z628: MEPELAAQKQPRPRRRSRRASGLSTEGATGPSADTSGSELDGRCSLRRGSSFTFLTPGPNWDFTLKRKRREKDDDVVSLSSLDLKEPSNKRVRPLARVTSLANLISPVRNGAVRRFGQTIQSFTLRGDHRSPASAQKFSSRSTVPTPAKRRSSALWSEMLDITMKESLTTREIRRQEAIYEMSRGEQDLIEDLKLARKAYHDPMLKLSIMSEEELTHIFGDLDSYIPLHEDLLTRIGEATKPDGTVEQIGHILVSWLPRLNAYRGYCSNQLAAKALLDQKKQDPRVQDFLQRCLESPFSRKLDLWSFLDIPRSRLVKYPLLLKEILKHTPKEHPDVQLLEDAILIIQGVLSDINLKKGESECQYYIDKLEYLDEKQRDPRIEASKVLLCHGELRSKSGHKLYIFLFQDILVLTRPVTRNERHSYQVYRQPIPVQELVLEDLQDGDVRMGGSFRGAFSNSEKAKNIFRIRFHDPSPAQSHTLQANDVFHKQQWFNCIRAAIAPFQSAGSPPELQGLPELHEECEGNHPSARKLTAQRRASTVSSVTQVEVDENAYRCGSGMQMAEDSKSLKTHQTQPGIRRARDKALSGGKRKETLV

| Target | log2 fold change |
| --- | --- |
| CNTRL (peptide sequence: QSEKEMEELHHNIDDLLQEK, peptide start residue: 1351) (UniProt Q7Z7A1) | -0.901 |
| UniProt Q7Z736 (peptide sequence: EGGGGAGTAAAVLGGWKR, peptide start residue: 619) | -0.265 |
| HSDL2 (peptide sequence: ALPCIVDVR, peptide start residue: 68) (UniProt Q6YN16) | -0.079 |
| MICAL3 (peptide sequence: SPQDEGLHLLKPLSIPKR, peptide start residue: 1371) (UniProt Q7RTP6) | -0.703 |
| RTL10 (peptide sequence: STASGTCGGKPAER, peptide start residue: 66) (UniProt Q7L3V2) | 0.187 |
| UniProt Q86UT8 (peptide sequence: TSAGWLPSFGR, peptide start residue: 292) | -0.161 |
| UniProt Q6ZN32 (peptide sequence: CKPQMNYDKLSR, peptide start residue: 72) | -0.128 |
| UniProt Q7Z4H8 (peptide sequence: LQLVQLSK, peptide start residue: 323) | 0.106 |
| UniProt Q7Z7K2 (peptide sequence: EGSHNAQEQMSSSR, peptide start residue: 28) | -0.372 |
| CROCCP2 (peptide sequence: MELELSVTK, peptide start residue: 21) (UniProt Q86T23) | -0.137 |
| RBM23 (peptide sequence: LAAMANNLQK, peptide start residue: 248) (UniProt Q86U06) | -0.208 |
| C1orf122 (peptide sequence: RRPEPAGGGNVSAK, peptide start residue: 71) (UniProt Q6ZSJ8) | -0.0805 |
| UniProt Q6XQN6 (peptide sequence: LTEDPEKQTLPGSK, peptide start residue: 408) | -0.541 |
| LDB1 (peptide sequence: KMSGGSTMSSGGGNTNNSNSK, peptide start residue: 300) (UniProt Q86U70) | 0.5 |
| EPM2AIP1 (peptide sequence: EVLPEHVSVLQGVDLSPDITR, peptide start residue: 131) (UniProt Q7L775) | 0.416 |
| C15orf39 (peptide sequence: AVPQPGAFQR, peptide start residue: 406) (UniProt Q6ZRI6) | -0.558 |
| UniProt Q7RTT3 (peptide sequence: KYEAMTK, peptide start residue: 54) | 0.0865 |
| COMMD6 (peptide sequence: SLKYPYVAVMLK, peptide start residue: 37) (UniProt Q7Z4G1) | -0.541 |
| UniProt Q6ZNG1 (peptide sequence: SFQCNESGK, peptide start residue: 214) | 0.142 |

Part of the list above in another layout:
Target,log2 fold change
"UniProt Q86UT8 (peptide sequence: TSAGWLPSFGR, peptide start residue: 292)",-0.161
"UniProt Q6ZN32 (peptide sequence: CKPQMNYDKLSR, peptide start residue: 72)",-0.128
"UniProt Q7Z4H8 (peptide sequence: LQLVQLSK, peptide start residue: 323)",0.106
"UniProt Q7Z7K2 (peptide sequence: EGSHNAQEQMSSSR, peptide start residue: 28)",-0.372
"CROCCP2 (peptide sequence: MELELSVTK, peptide start residue: 21) (UniProt Q86T23)",-0.137
"RBM23 (peptide sequence: LAAMANNLQK, peptide start residue: 248) (UniProt Q86U06)",-0.208
"C1orf122 (peptide sequence: RRPEPAGGGNVSAK, peptide start residue: 71) (UniProt Q6ZSJ8)",-0.0805
"UniProt Q6XQN6 (peptide sequence: LTEDPEKQTLPGSK, peptide start residue: 408)",-0.541
"LDB1 (peptide sequence: KMSGGSTMSSGGGNTNNSNSK, peptide start residue: 300) (UniProt Q86U70)",0.5
"EPM2AIP1 (peptide sequence: EVLPEHVSVLQGVDLSPDITR, peptide start residue: 131) (UniProt Q7L775)",0.416

(list continues)

| Target | log2 fold change |
| --- | --- |
| POGZ (peptide sequence: HHLTPHAR, peptide start residue: 1079) (UniProt Q7Z3K3) | -0.436 |
| TICRR (peptide sequence: AAAFMGTPQNQTHQQPHVLR, peptide start residue: 1254) (UniProt Q7Z2Z1) | -0.265 |
| TRMT11 (peptide sequence: EKYFSGVTK, peptide start residue: 444) (UniProt Q7Z4G4) | 0.146 |
| EMSY (peptide sequence: CRESCSSPSTVGSSLTTR, peptide start residue: 1207) (UniProt Q7Z589) | 0.882 |
| ZNF574 (peptide sequence: RFECGTCGK, peptide start residue: 666) (UniProt Q6ZN55) | 0.559 |
| PRPF39 (peptide sequence: VVVLFER, peptide start residue: 372) (UniProt Q86UA1) | -0.212 |
| BRAP (peptide sequence: CTVCLER, peptide start residue: 264) (UniProt Q7Z569) | -0.476 |
| UniProt Q86UE6 (peptide sequence: LQALAPDLFHGLR, peptide start residue: 149) | 0.193 |
| SDCCAG8 (peptide sequence: YTYDKLGK, peptide start residue: 630) (UniProt Q86SQ7) | -0.47 |
| UniProt Q7Z2T5 (peptide sequence: MGAHYHCIICSATITRR, peptide start residue: 180) | 0.214 |
| UniProt Q6ZTW0 (peptide sequence: DHEAVPLSVFR, peptide start residue: 172) | 0.0384 |
| LIN28B (peptide sequence: EGSPLDIPVDVFVHQSK, peptide start residue: 52) (UniProt Q6ZN17) | 0.34 |
| UniProt Q6ZMT4 (peptide sequence: AIEEENGK, peptide start residue: 474) | 0.401 |
| UniProt Q7Z3J3 (peptide sequence: STSGEGFQFGKKDPNFK, peptide start residue: 1953) | -0.0822 |
| NET1 (peptide sequence: VTSLANLISPVR, peptide start residue: 98) (UniProt Q7Z628) | -0.348 |
| UniProt Q6UX04 (peptide sequence: RSEEEEAPPDGAVAEYR, peptide start residue: 345) | 0.294 |
| FASTKD5 (peptide sequence: DLLGLHNMK, peptide start residue: 713) (UniProt Q7L8L6) | -0.279 |
| MRPL10 (peptide sequence: EIAAVFQDNR, peptide start residue: 85) (UniProt Q7Z7H8) | -0.217 |

— the supplement of paper PMC12819154, “High-throughput peptide-centric local stability assay extends protein–ligand identification to membrane proteins, tissues and bacteria” (Nature Structural & Molecular Biology, 2025)
